# Publication PMC7819943, “Rice protein-binding microarrays: a tool to detect cis-acting elements near promoter regions in rice”
# Amino acid sequences for entries named in this document (tags omitted).
# UniProt Q0JBA9, entry or part of it: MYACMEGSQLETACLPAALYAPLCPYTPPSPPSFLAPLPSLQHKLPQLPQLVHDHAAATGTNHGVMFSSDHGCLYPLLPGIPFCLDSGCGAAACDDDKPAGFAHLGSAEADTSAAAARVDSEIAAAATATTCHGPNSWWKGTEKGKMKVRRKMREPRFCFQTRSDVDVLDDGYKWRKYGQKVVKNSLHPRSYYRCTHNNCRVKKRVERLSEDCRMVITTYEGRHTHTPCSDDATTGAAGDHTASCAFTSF
# The list shows a part of the results.
# Biological target: OsWRKY34 (Oryza sativa, UniProt Q0JBA9 1-250)
# Experiment: protein-binding microarray (RPBM); PBS, 2% BSA, 51.3 ng/ul salmon testes DNA, 50 uM zinc acetate, 200 nM TF, 25 C, 1 h; high values mean tight binding
# Settings: protein: recombinant; tags: N-terminal polyhistidine and DsRed monomer fusion (pET32a); label: CyDye5-dUTP incorporated in the synthesized complementary strand; 3' TTTTT single-stranded linker to array surface; dsDNA, one strand shown
# Method in brief: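 The binding signal is fluorescence intensity per feature, in arbitrary units, read on an Axon 4000B scanner. Polyhistidine- and DsRed-tagged transcription factors (N-terminal fusions) from E. coli BL21-CodonPlus were purified on Ni–NTA and applied at 200 nM for 1 h at 25 °C to a double-stranded, BSA-blocked custom Agilent array in buffer with 50 µM zinc acetate.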
row,Sequence,binding signal
1,TCATATCACGTGCTTTCGAATTTTCGCTCACCATATATAACGGAGTCACCTAGTGCAG,13200 fluorescence intensity (a.u.)
2,GCTGGTTCTAGATTCGAGTGGCTAAACTGTACCCATGTTCCGGAGTCACCTAGTGCAG,8610 fluorescence intensity (a.u.)
3,AATGGGGTATTTTGATCCAGGGGTGTAAAGTTTTGGCGTGCGGAGTCACCTAGTGCAG,8990 fluorescence intensity (a.u.)
4,TTCTTTCGCCAGCTTTTGCAGTCGCCCCTTGCCGATTCCACGGAGTCACCTAGTGCAG,9340 fluorescence intensity (a.u.)
5,GCGAGCGGGGTGGGGCTCGCCGGCCGTCCGCGCGCGGGGACGGAGTCACCTAGTGCAG,10500 fluorescence intensity (a.u.)
6,ACATCGCCGGGCGGCTGCCTCGACCCCTCCCGTGATCTCCCGGAGTCACCTAGTGCAG,8080 fluorescence intensity (a.u.)
7,TACTTGGAGTCTTCCTCGCAGTCAACCGTCCATAAAAAATCGGAGTCACCTAGTGCAG,8320 fluorescence intensity (a.u.)
8,CTCCAAAACCTCACCCACGTACCACTTATCACAACCACGACGGAGTCACCTAGTGCAG,8170 fluorescence intensity (a.u.)
9,TATTTTGTACTTCTTGAAAATGTTCCTTTCTTTTCTGTCACGGAGTCACCTAGTGCAG,9740 fluorescence intensity (a.u.)
10,GACCTGCCTACATATATTTACCAGCGTATTAGCATAGTCACGGAGTCACCTAGTGCAG,9080 fluorescence intensity (a.u.)
11,GCTCTCTTTCCGCTTCTACCCTCGTCACGTCCACGAAATCCGGAGTCACCTAGTGCAG,14900 fluorescence intensity (a.u.)
12,AATTAGGTATACCCTCCTCAGTCCTCACTTAGTCACCTTTCGGAGTCACCTAGTGCAG,8080 fluorescence intensity (a.u.)
13,ATCCCACCATTACCGCGGCCGCTTTCACATCTCCTCCTCCCGGAGTCACCTAGTGCAG,8200 fluorescence intensity (a.u.)
14,TCTTTTCCCCACCTTATCGCCGCCGGTCTCCTCCTCCGACCGGAGTCACCTAGTGCAG,8060 fluorescence intensity (a.u.)
15,ATAAATAGACTGAAATGTCCTCGTTCTCTGTTTCTCTTTCCGGAGTCACCTAGTGCAG,8040 fluorescence intensity (a.u.)
16,CCGTTCTATATTACAAGTCGCTTTAACTTTTTCTTAACCACGGAGTCACCTAGTGCAG,14000 fluorescence intensity (a.u.)
17,GTGCATGTGTGTGTTGATTTGGCCGTGTAATAAAAAAAGACGGAGTCACCTAGTGCAG,10200 fluorescence intensity (a.u.)
18,TGCTTTCCGTCCACGTATTCATCGGGCTGCTTCTCCTCTCCGGAGTCACCTAGTGCAG,8400 fluorescence intensity (a.u.)
19,TGTTTGCACTTGAATTCATCCCATAGTTATATTTTTTTCCCGGAGTCACCTAGTGCAG,9320 fluorescence intensity (a.u.)
20,TGGCATTTGTATTGTATTTCTATTCAAACCGAGGGGTTTTCGGAGTCACCTAGTGCAG,8540 fluorescence intensity (a.u.)
21,CTACAGTGTACTCTTCGCTTATGGCTCCTACTTCACCAACCGGAGTCACCTAGTGCAG,10500 fluorescence intensity (a.u.)
22,GACGGCACGTAGGGTGGGGTGGGTCTGTGCTGATGCATGTCGGAGTCACCTAGTGCAG,11300 fluorescence intensity (a.u.)
23,GAGCCGCTCGTAAAGTCAACGGTCAACCCCGCCGCACGGACGGAGTCACCTAGTGCAG,12600 fluorescence intensity (a.u.)
24,ATTTTCCACGTCATCATGGTGCGGGAGACACGTGTCCACACGGAGTCACCTAGTGCAG,8800 fluorescence intensity (a.u.)
25,TGTTGTTGGTTTTCGTATAACATTTGACCATTTCTCTTATCGGAGTCACCTAGTGCAG,8240 fluorescence intensity (a.u.)

# Three consecutive records from above, quoted:
row,Sequence,binding signal
16,CCGTTCTATATTACAAGTCGCTTTAACTTTTTCTTAACCACGGAGTCACCTAGTGCAG,14000 fluorescence intensity (a.u.)
17,GTGCATGTGTGTGTTGATTTGGCCGTGTAATAAAAAAAGACGGAGTCACCTAGTGCAG,10200 fluorescence intensity (a.u.)
18,TGCTTTCCGTCCACGTATTCATCGGGCTGCTTCTCCTCTCCGGAGTCACCTAGTGCAG,8400 fluorescence intensity (a.u.)

# The list goes on.

row,Sequence,binding signal
1,ATGATCGTTCACTCACCAGCGAGTACAAGCTACTCCTTCCCGGAGTCACCTAGTGCAG,8420 fluorescence intensity (a.u.)
2,TAGCTTAGCCACCTTTTGATTTGCTTCAATTCTCTCTCATCGGAGTCACCTAGTGCAG,8670 fluorescence intensity (a.u.)
3,CTGATCCGCCGCCTCGGTCCAGCATCGACAGCCACGCCTTCGGAGTCACCTAGTGCAG,10400 fluorescence intensity (a.u.)
4,CCACGGGTATCCATGGGTCTTGTGGGTGTAGGGGAGACTCCGGAGTCACCTAGTGCAG,8400 fluorescence intensity (a.u.)
5,GCTCGGCTTCCTCTCCGCTCGCGTGCTTCGCGCCTTCGTCCGGAGTCACCTAGTGCAG,9260 fluorescence intensity (a.u.)
6,CTCTTCCTCTCCGCGTAGAGAGATCTGGTTGCTCCATCGACGGAGTCACCTAGTGCAG,8380 fluorescence intensity (a.u.)
7,CCACACCTTTATTCGAATCTTGCGTCCTTTGATGCGGTAACGGAGTCACCTAGTGCAG,9540 fluorescence intensity (a.u.)
8,AGTTTGGGTTGTCGCCGGCACCGGAGAAGAAGAGGAATTCCGGAGTCACCTAGTGCAG,10200 fluorescence intensity (a.u.)
9,GCTTTCTCTCTCTCGCTCACGTCAAGGTGGTCAGGGCGCCCGGAGTCACCTAGTGCAG,8640 fluorescence intensity (a.u.)
10,GCCGCCCGCTTGCCGTGCTCTTTTGCTGCTCGCCGCTGGCCGGAGTCACCTAGTGCAG,8200 fluorescence intensity (a.u.)
11,GACAACCGAGTCGTTGACTTCGGAATTCGCGGCAAGTTGCCGGAGTCACCTAGTGCAG,8920 fluorescence intensity (a.u.)
12,CATCTAATACGTCGTCTAAAAATTTCCTTTTCGCAAGCTACGGAGTCACCTAGTGCAG,9030 fluorescence intensity (a.u.)
13,AATCTGCTTGTTAATTCACCTGGTAATGCTGTCTTTTATTCGGAGTCACCTAGTGCAG,8720 fluorescence intensity (a.u.)
14,TGAGTTGTTTTGTTGATAGGTATAGATATGAATCGAATTACGGAGTCACCTAGTGCAG,8950 fluorescence intensity (a.u.)
15,GTCTAAGGCTTTTATCATCTTATATCACACTCGCATAGCTCGGAGTCACCTAGTGCAG,9790 fluorescence intensity (a.u.)
16,CCTCGTCTTTGTGCTTGCGCCTTCCCCGCAACCTAGATCTCGGAGTCACCTAGTGCAG,8040 fluorescence intensity (a.u.)
17,ACTAGTCACACAAATTACCGTGCTTCATCAACGACACTTTCGGAGTCACCTAGTGCAG,9610 fluorescence intensity (a.u.)
18,AATTTTCGCCAAGCTTGTACCTTTACGCGGCATTTGATATCGGAGTCACCTAGTGCAG,11900 fluorescence intensity (a.u.)
19,TCAACCCACCAGCAGTAAACCAACCAACGTGCCAGCGACTCGGAGTCACCTAGTGCAG,9820 fluorescence intensity (a.u.)
20,ATTTGTCAGCACACCACGTATGCATGCCCTGCTTTATCTTCGGAGTCACCTAGTGCAG,8120 fluorescence intensity (a.u.)
21,CTTTTTCTTATAGTCTTCTGGGTCTCCATTTTTAAGTCTTCGGAGTCACCTAGTGCAG,10500 fluorescence intensity (a.u.)
22,ACAACTATATAGCAAAATTGTTCGTGGTTTCGTTCAGCTTCGGAGTCACCTAGTGCAG,8580 fluorescence intensity (a.u.)
23,ATGTGAGACTGTTTTTTAACTTTTGTTCGGGGTTAGCTCTCGGAGTCACCTAGTGCAG,13100 fluorescence intensity (a.u.)
24,GCCCCTACACCATCAACAACGTCCCATCGTCTCTATTCGGCGGAGTCACCTAGTGCAG,8970 fluorescence intensity (a.u.)
